Measured values as given in PubChem BioAssay AID1671190 (National Center for Advancing Translational Sciences (NCATS), 2021).
“And” between values parts separate entries of the source, which are not always exact repeats. Equal values may be shown once. The campaign covered roughly 580,000 compounds. About 6,100 (1.1%) were called active. Inconclusive results, whose numbers are uncertain, are shown with a selection of clear calls. Calls come from the whole dose curve; as a rule, active = well fitted inhibition curve with a large enough effect; inconclusive = small, poorly fitted or top-dose-only effect, or another doubt; inactive = no such curve, though single readings can be large or run the other way. Potencies of inconclusive entries are doubtful fits and often do not repeat.

Sequences of proteins named here, by UniProt entry; tags and fusion partners are left off.
UniProt P18054, whole entry, looked up: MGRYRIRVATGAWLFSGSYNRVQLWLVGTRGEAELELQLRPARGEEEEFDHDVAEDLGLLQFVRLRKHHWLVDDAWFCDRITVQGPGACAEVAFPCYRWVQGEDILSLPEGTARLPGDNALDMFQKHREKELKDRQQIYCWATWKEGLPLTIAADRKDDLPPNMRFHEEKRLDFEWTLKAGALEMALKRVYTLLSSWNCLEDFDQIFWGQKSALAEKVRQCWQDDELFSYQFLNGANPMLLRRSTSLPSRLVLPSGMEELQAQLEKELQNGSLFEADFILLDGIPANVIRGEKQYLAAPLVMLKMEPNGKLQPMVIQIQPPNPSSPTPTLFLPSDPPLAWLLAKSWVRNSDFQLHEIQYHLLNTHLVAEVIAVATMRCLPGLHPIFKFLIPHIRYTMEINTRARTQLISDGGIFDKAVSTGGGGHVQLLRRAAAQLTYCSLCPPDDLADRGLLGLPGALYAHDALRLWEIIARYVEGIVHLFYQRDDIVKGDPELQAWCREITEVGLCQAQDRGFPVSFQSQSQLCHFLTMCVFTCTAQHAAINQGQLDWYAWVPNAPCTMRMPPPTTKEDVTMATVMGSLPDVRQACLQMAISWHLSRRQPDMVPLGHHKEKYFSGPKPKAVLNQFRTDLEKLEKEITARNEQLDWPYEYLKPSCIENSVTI

These compounds were tested against Polyunsaturated fatty acid lipoxygenase ALOX12 (Homo sapiens) (UniProt P18054) (assay: Primary qHTS assay for inhibitors of human arachidonate 12S-lipoxygenase (ALOX12): Round 2). Conditions: purified 12hLO, xylenol orange hydroperoxide absorbance; activity change, negative = inhibition: at 108 µM (top of the series).
How it was run: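 Purified human 12hLO at 150 nM in 25 mM Hepes, 0.01% Triton X-100, pH 7.0, preincubated 15 min at room temperature with compound. Reaction started with 40 uM arachidonic acid, 30 min at room temperature. Hydroperoxide measured by Fe-xylenol orange, 573/405 nm absorbance ratio.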
% is set by controls: 0 for no effect and ±100 for the full control effect; potency is the fitted concentration of half-maximal effect.

Compound	Potency	activity change, negative = inhibition
C[N+]1(C)[C@@H]2CC(OC(=O)[C@H](CO)c3ccccc3)C[C@H]1[C@H]1O[C@@H]12 (stereo not given in full)	inconclusive: 38.5 µM [inhibitor, partial curve, poor fit]	
CN1C(=O)N(C)C(=O)C2(Cc3ccccc3N3CCCC32)C1=O (stereo not given)	inconclusive: 39.8 µM [inhibitor, partial curve, poor fit]	
COC(=O)C1=C(c2c(C)noc2C)C[C@@H]2CC[C@H]1N2C(=O)N1CCOCC1	inactive	
CCCCn1c(N)c(C(=O)NCCN2CCOCC2)c2nc3ccccc3nc21	inactive	
Cc1ccc(C2C(S(C)(=O)=O)=C(O)C(=O)N2c2ccccc2)cc1 (stereo not given) (tested in a mixture with another compound)	inconclusive: 25.1 µM [inhibitor, partial curve, poor fit]	
Cc1cccc(-n2c(/C=C\c3cccc(Br)c3)nc3ccccc3c2=O)c1	inconclusive: 141 µM [inhibitor, partial curve, poor fit]	
NC1(c2ccccc2)CC1	inactive	
COc1ccc(C2SCC(=O)Nc3[nH]ncc32)cc1OC1CCCC1 (stereo not given)	inactive	
COc1ccccc1-c1cc([C@H]2CN3CC[C@H]2C[C@@H]3COC(=O)Nc2ccc(C(C)(C)C)cc2)n(C)n1	inconclusive: 28.2 µM [inhibitor, full curve]	
Cc1cccc(OCC(=O)N2CCN(Cc3ccncc3)CC2)c1	inconclusive: 31.6 µM [inhibitor, partial curve, poor fit]	
c1ccc2c(CN3CCCCCCC3)c[nH]c2c1	inconclusive: 1.26 µM [inhibitor, full curve]	
Cc1cc(C)cc(OCCOc2cccc(C=C3C(=O)NC(=O)NC3=O)c2)c1	active: 12.6 µM	
O=c1[nH]c(=O)n(CC2CCCO2)c(O)c1/C=C1\C=Nc2ccccc21 (stereo not given)	inconclusive: 50.1 µM [inhibitor, partial curve, poor fit]	
O=C(N1CCC2(CC1)NCc1ccccc1-n1ccnc12)C1(c2ccccc2)CC1	inactive	
CCCCCCCCCOc1ccc2[nH]cc(CCN)c2c1	inconclusive: 0.891 µM [inhibitor, full curve, poor fit]	
c1cnc(N2CCC3(CCNCC3)CC2)nc1	inconclusive: 31.6 µM [inhibitor, single point]	
Cc1nc(-c2ccccc2)cc([C@H]2CN3CC[C@H]2C[C@@H]3CNC(=O)NC(C)C)n1	active: 25.1 µM	
CCOC(=O)c1ccc(N=C(c2ccccc2)c2c(O)n(C)c(=O)n(C)c2=O)cc1	inactive	
CCC(c1nnnn1-c1ccc2c(c1)OCCO2)N1CCC(n2c(=O)[nH]c3ccccc32)CC1 (stereo not given)	inconclusive: 44.7 µM [inhibitor, single point]	
C=CCn1c(O)c(C(C)=Nc2ccc(C(=O)O)cc2)c(=O)[nH]c1=O	inconclusive: 44.7 µM [inhibitor, partial curve, poor fit]	
Cc1ccc(CC(=O)N2CCN(C3CCN(Cc4cccnc4)C3=O)CC2)cc1 (stereo not given)	inconclusive: 79.4 µM [inhibitor, single point]	
O=C(NCC1=C(c2cccc3ccccc23)C[C@@H]2CC[C@H]1N2Cc1ccco1)c1ccc([N+](=O)[O-])cc1	inconclusive: 79.4 µM [inhibitor, single point]	

Compound	Potency	activity change, negative = inhibition
Clc1ccc(COC(Cn2ccnc2)c2ccc(Cl)cc2Cl)cc1 (stereo not given)	inconclusive: 50.1 µM [inhibitor, partial curve, poor fit]	
CC#C[C@]1(O)CC[C@H]2[C@@H]3C[C@H](C)C4=CC(=O)CC[C@]4(C)[C@H]3CC[C@@]21C		inactive: -7.51% [at 22.9 µM]
O=C(Nc1ccccc1)N1C[C@@H]2C[C@H](C1)c1c(-c3ccc(Cl)cc3)ccc(=O)n1C2	inconclusive: 63.1 µM [inhibitor, partial curve, poor fit]	
O=C(CC1CCCC1)N1[C@H]2CC[C@@H]1c1cnc(-c3ccccc3)nc1C2	inactive	
CNC(=O)NC(=O)CN1CCN(C(=O)Cc2cccc(OC)c2)CC1	inactive	
O=C(c1cc(-c2ccc(Cl)cc2)n(-c2ccc(Cl)cc2Cl)n1)N1CCOCC1	inconclusive: 100 µM [inhibitor, single point]	
CC(=O)Nc1ccc(C2CN(C)CC2C(=O)c2ccc(Cl)cc2)cc1 (stereo not given)	inconclusive: 79.4 µM [inhibitor, partial curve, poor fit]	
Cc1ccccc1-n1c(O)c(/C=N/NC(=O)c2ccccc2O)c(=O)[nH]c1=S	inconclusive: 39.8 µM [inhibitor, partial curve]	
CN1CCC(NC2CCCC2)CC1	inconclusive: 141 µM [inhibitor, single point]	
CN(Cc1cccc(-c2cccnc2)c1)C(=O)Oc1ccc([N+](=O)[O-])cc1	inconclusive: 112 µM [inhibitor, single point]	
COc1ccc(-n2c(CN3CCOCC3)nc3ccccc3c2=O)c(OC)c1	inactive	
O=c1[nH]c(=S)n(C2CC2)c(O)c1C=NCCc1ccccc1	inconclusive: 141 µM [inhibitor, single point]	
Cc1ccc(CC(=O)N2CCN(Cc3ccccc3)CC2)cc1	inactive	
CC(C)[C@H]1CC2C3CC=C4C[C@@H](O)CC[C@]4(C)C3CC[C@]2(C)[C@H]1O (stereo not given in full)	inactive	
Cc1ccccc1-c1nc2ccccc2c(=O)n1C	inconclusive: 1.58 µM [inhibitor, full curve, poor fit]	
N#Cc1cc2c(cc1C(=O)c1cccs1)OCCO2	inactive	
COC(=O)[C@@H]1[C@@H](CO)[C@@H]2Cn3c(ccc(Br)c3=O)[C@H]1N2S(C)(=O)=O	inactive	
Cc1cc(C(=O)OCC(=O)Nc2ccc(F)cc2)c(C)n1C1CC1	inconclusive: 31.6 µM [inhibitor, single point]	
c1ccc(C[C@@H](c2ccccc2)N2CCCCC2)cc1	inconclusive: 35.5 µM [inhibitor, single point]	
c1cc2nc(C3CCCNC3)[nH]c2cn1 (stereo not given)	inconclusive: 12.6 µM [inhibitor, full curve, poor fit]	
O=C(Nc1ccc(C(=O)O)cc1)Oc1ccc(N(CCCl)CCCl)cc1	inconclusive: 56.2 µM [inhibitor, partial curve, poor fit]	
CN1CCc2nc(SCc3ccccc3Br)c(C#N)cc2C1	inactive	

13 of these compounds in another layout:

| Compound | Potency | activity change, negative = inhibition |
| --- | --- | --- |
| CC#C[C@]1(O)CC[C@H]2[C@@H]3C[C@H](C)C4=CC(=O)CC[C@]4(C)[C@H]3CC[C@@]21C |  | inactive: -7.51% [at 22.9 µM] |
| O=C(Nc1ccccc1)N1C[C@@H]2C[C@H](C1)c1c(-c3ccc(Cl)cc3)ccc(=O)n1C2 | inconclusive: 63.1 µM [inhibitor, partial curve, poor fit] |  |
| O=C(CC1CCCC1)N1[C@H]2CC[C@@H]1c1cnc(-c3ccccc3)nc1C2 | inactive |  |
| CNC(=O)NC(=O)CN1CCN(C(=O)Cc2cccc(OC)c2)CC1 | inactive |  |
| O=C(c1cc(-c2ccc(Cl)cc2)n(-c2ccc(Cl)cc2Cl)n1)N1CCOCC1 | inconclusive: 100 µM [inhibitor, single point] |  |
| CC(=O)Nc1ccc(C2CN(C)CC2C(=O)c2ccc(Cl)cc2)cc1 (stereo not given) | inconclusive: 79.4 µM [inhibitor, partial curve, poor fit] |  |
| Cc1ccccc1-n1c(O)c(/C=N/NC(=O)c2ccccc2O)c(=O)[nH]c1=S | inconclusive: 39.8 µM [inhibitor, partial curve] |  |
| CN1CCC(NC2CCCC2)CC1 | inconclusive: 141 µM [inhibitor, single point] |  |
| CN(Cc1cccc(-c2cccnc2)c1)C(=O)Oc1ccc([N+](=O)[O-])cc1 | inconclusive: 112 µM [inhibitor, single point] |  |
| COc1ccc(-n2c(CN3CCOCC3)nc3ccccc3c2=O)c(OC)c1 | inactive |  |
| O=c1[nH]c(=S)n(C2CC2)c(O)c1C=NCCc1ccccc1 | inconclusive: 141 µM [inhibitor, single point] |  |
| Cc1ccc(CC(=O)N2CCN(Cc3ccccc3)CC2)cc1 | inactive |  |
| CC(C)[C@H]1CC2C3CC=C4C[C@@H](O)CC[C@]4(C)C3CC[C@]2(C)[C@H]1O (stereo not given in full) | inactive |  |

More results:

Compound	Potency	activity change, negative = inhibition
Cc1nc2ccccc2c(=O)n1-c1ccc(Cl)cc1Cl	inconclusive: 112 µM [inhibitor, single point]	
C=C(C)C1(CCCC)C(=O)NC(=S)NC1=O	active: 44.7 µM	
CC(C)c1ccc(NC(=O)OC[C@H]2C[C@@H]3CCN2C[C@@H]3c2cc(C3CCCC3)nc(-c3ccncc3)n2)cc1	inconclusive: 39.8 µM [inhibitor, partial curve]	
Cc1nc(-c2ccc(-c3ccc(C(=O)N4CCc5cc6c(cc54)C4(CCN(C)CC4)CO6)cc3)c(C)c2)no1	inconclusive: 31.6 µM [inhibitor, partial curve, poor fit] and inconclusive: 15.3 µM [inhibitor, partial curve, poor fit]	
O=C(NC[C@H]1C[C@@H]2CCN1C[C@@H]2CN1CCC(Cc2ccccc2)CC1)c1ccccc1	inconclusive: 100 µM [inhibitor, partial curve, poor fit]	
COC(=O)C(O)(c1ccc(N=Cc2ccccc2O)c(C)c1)C(F)(F)F (stereo not given)	inactive	
CN1CCN(C(=O)Cc2c[nH]c3ncc(-c4ccccc4F)cc23)CC1	inactive	
CN(C(=O)c1cn(Cc2ccccc2)c2ccccc12)C1CCS(=O)(=O)C1 (stereo not given)	inactive	
CCN(CC)c1ccc(/C=C2\C(=O)NC(=S)N(C)C2=O)o1	inconclusive: 79.4 µM [inhibitor, partial curve, poor fit]	
Cc1[nH]c2ccc(OC(F)(F)F)cc2c1CCNCc1cccc([N+](=O)[O-])c1	inconclusive: 44.7 µM [inhibitor, partial curve, poor fit]	
COC(=O)C1=C(c2c(C)noc2C)C[C@@H]2CC[C@H]1N2C(=O)NCc1ccco1	inconclusive: 39.8 µM [inhibitor, partial curve]	
Cc1ccc(-n2c(CC3C(=O)Nc4ccccc43)nc3ccccc3c2=O)cc1 (stereo not given)	inconclusive: 50.1 µM [inhibitor, partial curve, poor fit]	
CCN1CCN(C(=O)Cc2c(C)n(C(=O)c3ccc(Cl)cc3)c3ccc(OC)cc23)CC1	inconclusive: 39.8 µM [inhibitor, partial curve, poor fit]	
CC1=NN(c2ccccc2)C(=O)C1/C=C1/C(=O)NC(=O)N(c2cc(C)cc(C)c2)C1=O (stereo not given)	inconclusive: 44.7 µM [inhibitor, partial curve, poor fit]	
O=C(c1ccccc1)N1C[C@@H]2C[C@H](C1)c1c(-c3cccnc3)ccc(=O)n1C2	inconclusive: 100 µM [inhibitor, partial curve, poor fit]	
Cc1cccc(N2C(=O)NC(=O)/C(=C/c3cc4c(cc3[N+](=O)[O-])OCO4)C2=O)c1	inconclusive: 35.5 µM [inhibitor, partial curve]	
O=[N+]([O-])c1c(Cl)c(Cl)c(Cl)c(Cl)c1Cl	inactive	
CC1=C(C(=O)O)N2C(=O)C(NC(=O)CCCC(=O)O)C2SC1 (stereo not given)	active: 28.2 µM	
CCOC(=O)C1CCN(/C=C2/C(=O)NC(=O)N(c3ccc(OCC)cc3)C2=O)CC1	inactive	
Cc1ccc(NC(=O)c2cn(Cc3ccccc3)nn2)c(C)c1	inactive	
Cn1c(O)c(/C=N/NC(=O)c2ccncc2)c(=O)n(C)c1=S	inactive	
